According to PMC7862700:
This is a selection; strong and weak results do not stand in their true shares. At the low end of the ranking the order means little.

The sequences below were run against SPI1 (UniProt P17947) (assay: DAPPL (digital affinity profiling via proximity ligation, sequencing)). Details: 10 mM Tris-HCl pH 7.5, 50 mM NaCl, 1 mM DTT, 4% glycerol, room temperature, 30 min; GST-TFs on glutathione beads, 16-mer random dsDNA library, 0.1% …; high values mean tight binding; double strand, one strand shown; scale: fold enrichment (6-mer frequency, TF over GST control).

Sequence	binding signal
ACCCGT	0.874
AGGCAC	0.806
TGTGCG	0.924
ACGCCA	0.946
ACGCTC	0.984
AGATGT	0.858
CGTTGT	0.985
CTCACC	1.24
CAGACT	0.997
TGCGTC	0.978
GCTGAC	1.04
CGCCAA	1.04
TCGACG	0.982
AGGGCT	0.933
GATGTC	1.23
GGTCTG	0.916
CCACCC	1.22
GCATCT	0.957
TTGAAA	1.18
ACTCAC	1.23

Sequence	binding signal
AACACT	1.36
CGCTTG	0.975
CCATCC	1.31
ACGTTG	1.08
GCGCGC	1.05
AGCACG	0.931
ACAGCA	0.951
TCGCGA	0.854
GGCACC	0.777
CTCTCC	1.41
CACATG	1.11
ATTAGA	0.856
GGACAT	1.13
CGGATT	0.98
TTATCC	1.41
TTCCAA	1.11
CAAATG	1.25
TTGTTG	1.15
ATATTG	1.28

As entered above:
binding signal with GATGTC is entered as 1.23
binding signal with ATTAGA is entered as 0.856
